Data: patent US20030170221A1, “STREPTOMYCES MEGASPORUS SD5, PROCESS FOR THE ISOLATION THEREOF, NOVEL FIBRINOLYTIC ENZYME PREPARED THEREFROM, PROCESS FOR THE PRODUCTION OF SAID ENZYME AND METHOD OF TREATMENT OF THROMBOLYTIC DISORDERS USING SAID ENZYME” (MAHARASHTRA ASSOC. FOR THE CULTIVATION OF SCIENCE, priority 2001, published 2003)
For some of these results: At least one compound was matched to its structure with a doubt left. Some entries share one result that the patent states for a list of compounds. Numbered stars: 1 amine (or outer) side, 2 acyl side, 3 side chain; on linkers, the order of the positions; unused ones are H or OH. Peptide text beside a SMILES is read from it. CO = O=C([*:1])[*:2]

Key:
[1] = Table III, available enzymes; cited from earlier work
[2] = system: fibrinolytic enzyme produced by S. megasporus SD5; test: Effect of protease inhibitors on fibrinolytic activity of the crude enzyme (FIG. 5); assay type: biochemical, Streptomyces megasporus SD5
From the text: 1.Control, 2—Antipain—3, Bestatin, —4, Chymostatin, —5. E-64, 6—Leupeptin, 7—Pepstatin, 8 Phosphoramidon, 9—pefabloc, 10—EDTA, 11—EDTA+Ca^++, 12—Aprotinin, 13—Trypsin inhibitor, 14—β-mercaptoethanol, 15—TPCK, 16—1, 10 pheuanthroline, 17—PMSF.
To determine the class to which the enzyme belonged the effect of different protease inhibitors were studied in detail.

actinokinase = test: Effects of inhibitors and metal ions on activity of the purified enzyme; assay type: biochemical, Streptomyces megasporus SD5; settings: inhibitor 1 mM, universal protease substrate, 55° C.

| Compound | Optimum Temperature [1] | Optimum pH [1] | effect of inhibitor on fibrinolytic activity of the enzyme [2] | effect of inhibitor on enzymatic activity (actinokinase) |
| --- | --- | --- | --- | --- |
| Streptokinase: prior art plasminogen activator | 25-37 °C | 7.3-7.5 | – | – |
| CC(C)[C@H](NC(=O)[C@H](CCCNC(=N)N)NC(=O)N[C@@H](Cc1ccccc1)C(=O)O)C(=O)N[C@H](C=O)CCCNC(=N)N [Antipain] ({Phe-CO}-Arg-Val-Arg-aldehyde) | – | – | strongly repressed | highly repressed |
